{"source": "paper PMC7264223", "about": "“Tetrameric architecture of an active phenol-bound form of the AAA^+ transcriptional regulator DmpR” (Nature Communications, 2020)", "target": "T1, DmpR WT (CapR) (Pseudomonas putida KCTC 1452) (UniProt Q7WSM9)", "T1 sequence (looked up)": "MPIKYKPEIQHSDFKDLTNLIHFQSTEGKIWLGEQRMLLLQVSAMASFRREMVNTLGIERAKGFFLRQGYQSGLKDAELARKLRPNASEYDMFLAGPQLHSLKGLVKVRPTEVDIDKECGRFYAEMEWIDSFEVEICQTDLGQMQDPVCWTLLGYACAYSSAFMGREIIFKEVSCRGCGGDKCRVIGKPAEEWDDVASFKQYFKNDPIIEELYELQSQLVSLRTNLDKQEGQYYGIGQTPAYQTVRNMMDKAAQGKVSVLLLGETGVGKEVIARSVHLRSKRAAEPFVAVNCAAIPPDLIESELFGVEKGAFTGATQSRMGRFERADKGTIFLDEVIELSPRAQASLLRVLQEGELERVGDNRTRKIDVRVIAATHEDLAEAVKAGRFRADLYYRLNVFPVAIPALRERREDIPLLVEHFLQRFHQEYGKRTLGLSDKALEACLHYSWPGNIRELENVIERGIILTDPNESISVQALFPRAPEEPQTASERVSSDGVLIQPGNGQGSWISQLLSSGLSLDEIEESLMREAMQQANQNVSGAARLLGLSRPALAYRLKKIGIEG", "test": "ITC", "conditions": "ITC at 25 C (MicroCal Auto-iTC200), DmpR 10 or 40 uM in cell, DNA 100 uM injectant, ITC buffer not stated, recombinant protein, residues 1-563, protein details: N-terminal 6xHis", "note": "Construct, isoform or probe ends are uncertain for at least one entry. Where a protein sequence is shown, tags need not be part of it."}
{"sequence": "GCCATAAGCATTTGCTCAAGCGGCCTTGGGCAATTGATCAAATGCTTAAAAAGT (double strand) [cognate UAS DNA (54 bp, two UASs)]", "values": [{"measurement": "Kd", "setting": "no phenol", "value": 476, "unit": "nM"}, {"measurement": "Kd", "setting": "phenol present", "value": 387, "unit": "nM"}]}
